In the supplement of paper PMC12823440, “Inhibitors supercharge kinase turnover through native proteolytic circuits” (Nature, 2025):
Counter-ions that a name gives are not always drawn. Some of the results follow. The calls rarely recur for the same compound in another form.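 In K562 cells expressing nanoluciferase-fused kinases, luminescence was recorded at 4 h intervals between 2 and 18 h, normalized as percent of control with DMSO at 100% and a positive control at 0%. A significant (2 sigma) signal drop marks a time point as decreased. The authors' rule for a hit is not shown and takes in more than the number of time points.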

The chains behind the UniProt entries cited, without tags or fusion partners. Where a name states a change or a piece, a line headed by the entry shows the natural chain unless it says otherwise.
UniProt P21860, whole entry: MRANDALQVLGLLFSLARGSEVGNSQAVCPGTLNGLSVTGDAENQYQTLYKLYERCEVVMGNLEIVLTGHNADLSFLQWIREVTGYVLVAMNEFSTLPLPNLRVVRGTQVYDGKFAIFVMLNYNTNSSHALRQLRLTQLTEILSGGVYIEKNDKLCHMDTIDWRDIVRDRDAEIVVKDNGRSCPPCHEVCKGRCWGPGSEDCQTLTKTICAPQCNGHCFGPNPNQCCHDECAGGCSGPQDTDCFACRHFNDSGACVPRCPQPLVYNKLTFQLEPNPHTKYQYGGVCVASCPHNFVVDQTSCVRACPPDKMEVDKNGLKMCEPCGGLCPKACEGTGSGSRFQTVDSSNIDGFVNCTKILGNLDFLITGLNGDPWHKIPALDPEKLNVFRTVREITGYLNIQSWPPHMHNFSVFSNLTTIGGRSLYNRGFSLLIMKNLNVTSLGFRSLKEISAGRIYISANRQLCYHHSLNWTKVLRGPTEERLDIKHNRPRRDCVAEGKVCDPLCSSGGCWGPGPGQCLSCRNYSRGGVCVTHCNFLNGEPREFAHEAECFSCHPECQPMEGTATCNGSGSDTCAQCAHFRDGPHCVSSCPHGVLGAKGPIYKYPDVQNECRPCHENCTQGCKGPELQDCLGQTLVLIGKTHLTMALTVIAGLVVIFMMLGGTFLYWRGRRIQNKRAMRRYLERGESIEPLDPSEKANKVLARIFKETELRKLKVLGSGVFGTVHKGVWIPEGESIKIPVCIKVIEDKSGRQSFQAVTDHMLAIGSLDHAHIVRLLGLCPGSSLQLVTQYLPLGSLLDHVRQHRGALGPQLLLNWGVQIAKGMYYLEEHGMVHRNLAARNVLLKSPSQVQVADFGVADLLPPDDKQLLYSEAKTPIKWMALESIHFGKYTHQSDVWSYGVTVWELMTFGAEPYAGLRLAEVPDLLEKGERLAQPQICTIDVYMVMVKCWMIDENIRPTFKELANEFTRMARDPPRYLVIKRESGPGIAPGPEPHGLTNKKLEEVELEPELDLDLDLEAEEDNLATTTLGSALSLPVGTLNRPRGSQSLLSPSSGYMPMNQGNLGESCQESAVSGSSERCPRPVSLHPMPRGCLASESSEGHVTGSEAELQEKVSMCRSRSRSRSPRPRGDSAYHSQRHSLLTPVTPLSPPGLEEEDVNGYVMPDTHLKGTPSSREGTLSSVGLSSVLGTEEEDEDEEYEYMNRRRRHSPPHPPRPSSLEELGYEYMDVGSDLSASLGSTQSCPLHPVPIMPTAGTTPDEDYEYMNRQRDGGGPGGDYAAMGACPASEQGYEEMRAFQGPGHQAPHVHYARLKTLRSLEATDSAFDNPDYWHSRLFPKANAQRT
UniProt Q15303, whole entry R711C: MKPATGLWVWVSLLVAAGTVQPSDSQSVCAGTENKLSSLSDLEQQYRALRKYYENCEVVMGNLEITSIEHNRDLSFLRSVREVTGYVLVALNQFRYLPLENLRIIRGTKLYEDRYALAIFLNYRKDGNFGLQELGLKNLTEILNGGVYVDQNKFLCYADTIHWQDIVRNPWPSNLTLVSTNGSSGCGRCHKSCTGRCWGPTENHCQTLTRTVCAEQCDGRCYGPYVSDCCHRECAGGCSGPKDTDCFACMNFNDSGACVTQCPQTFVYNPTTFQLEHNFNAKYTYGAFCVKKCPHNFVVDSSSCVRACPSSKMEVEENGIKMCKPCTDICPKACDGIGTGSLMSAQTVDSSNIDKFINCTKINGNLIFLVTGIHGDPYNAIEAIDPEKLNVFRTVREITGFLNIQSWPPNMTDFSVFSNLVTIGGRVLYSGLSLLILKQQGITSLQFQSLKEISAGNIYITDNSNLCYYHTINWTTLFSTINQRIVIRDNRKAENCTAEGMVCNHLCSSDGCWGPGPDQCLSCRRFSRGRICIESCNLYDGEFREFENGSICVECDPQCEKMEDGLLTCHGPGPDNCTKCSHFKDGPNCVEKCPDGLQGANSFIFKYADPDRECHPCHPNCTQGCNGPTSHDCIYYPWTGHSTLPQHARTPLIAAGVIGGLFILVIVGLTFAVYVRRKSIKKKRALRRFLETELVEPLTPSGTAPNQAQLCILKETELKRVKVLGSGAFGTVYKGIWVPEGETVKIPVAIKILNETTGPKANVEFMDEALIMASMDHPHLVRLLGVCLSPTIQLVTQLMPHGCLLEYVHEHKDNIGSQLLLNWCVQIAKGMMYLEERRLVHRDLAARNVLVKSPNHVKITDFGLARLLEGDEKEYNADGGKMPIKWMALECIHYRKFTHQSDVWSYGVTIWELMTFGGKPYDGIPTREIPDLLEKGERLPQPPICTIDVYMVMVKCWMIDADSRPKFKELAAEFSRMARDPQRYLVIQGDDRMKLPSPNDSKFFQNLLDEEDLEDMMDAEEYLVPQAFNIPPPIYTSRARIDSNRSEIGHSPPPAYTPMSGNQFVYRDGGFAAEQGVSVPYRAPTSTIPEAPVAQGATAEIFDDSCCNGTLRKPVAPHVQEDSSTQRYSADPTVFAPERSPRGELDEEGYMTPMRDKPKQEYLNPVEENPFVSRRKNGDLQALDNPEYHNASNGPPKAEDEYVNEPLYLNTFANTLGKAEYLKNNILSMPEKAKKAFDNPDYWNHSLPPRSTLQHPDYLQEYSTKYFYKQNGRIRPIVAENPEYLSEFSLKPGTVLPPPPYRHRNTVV
UniProt O75460: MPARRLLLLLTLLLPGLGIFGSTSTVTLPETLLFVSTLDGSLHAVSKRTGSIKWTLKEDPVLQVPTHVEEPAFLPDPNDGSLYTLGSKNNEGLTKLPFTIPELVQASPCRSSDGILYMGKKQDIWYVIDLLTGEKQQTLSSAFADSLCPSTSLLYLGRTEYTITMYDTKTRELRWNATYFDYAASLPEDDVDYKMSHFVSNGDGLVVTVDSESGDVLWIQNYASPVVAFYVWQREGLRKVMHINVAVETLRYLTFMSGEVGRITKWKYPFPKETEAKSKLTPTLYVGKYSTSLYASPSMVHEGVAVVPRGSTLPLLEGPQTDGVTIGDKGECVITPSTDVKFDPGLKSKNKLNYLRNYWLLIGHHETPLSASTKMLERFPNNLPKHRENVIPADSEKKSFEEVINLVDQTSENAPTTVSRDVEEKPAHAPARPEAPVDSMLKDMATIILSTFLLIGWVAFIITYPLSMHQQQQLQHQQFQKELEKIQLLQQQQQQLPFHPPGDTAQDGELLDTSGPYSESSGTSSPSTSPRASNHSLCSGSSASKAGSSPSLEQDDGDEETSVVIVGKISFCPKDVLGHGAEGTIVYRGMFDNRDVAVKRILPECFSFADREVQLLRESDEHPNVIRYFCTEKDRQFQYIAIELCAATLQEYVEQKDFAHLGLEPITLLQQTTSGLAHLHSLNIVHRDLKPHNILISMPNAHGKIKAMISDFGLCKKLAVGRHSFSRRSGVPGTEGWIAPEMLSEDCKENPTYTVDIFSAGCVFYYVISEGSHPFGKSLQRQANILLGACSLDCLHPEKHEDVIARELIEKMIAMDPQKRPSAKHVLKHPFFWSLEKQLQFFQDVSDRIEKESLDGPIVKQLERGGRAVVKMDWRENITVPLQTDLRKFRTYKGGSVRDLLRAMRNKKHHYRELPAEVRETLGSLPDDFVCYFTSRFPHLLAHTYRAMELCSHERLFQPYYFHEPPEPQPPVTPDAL
UniProt P21802, whole entry, looked up: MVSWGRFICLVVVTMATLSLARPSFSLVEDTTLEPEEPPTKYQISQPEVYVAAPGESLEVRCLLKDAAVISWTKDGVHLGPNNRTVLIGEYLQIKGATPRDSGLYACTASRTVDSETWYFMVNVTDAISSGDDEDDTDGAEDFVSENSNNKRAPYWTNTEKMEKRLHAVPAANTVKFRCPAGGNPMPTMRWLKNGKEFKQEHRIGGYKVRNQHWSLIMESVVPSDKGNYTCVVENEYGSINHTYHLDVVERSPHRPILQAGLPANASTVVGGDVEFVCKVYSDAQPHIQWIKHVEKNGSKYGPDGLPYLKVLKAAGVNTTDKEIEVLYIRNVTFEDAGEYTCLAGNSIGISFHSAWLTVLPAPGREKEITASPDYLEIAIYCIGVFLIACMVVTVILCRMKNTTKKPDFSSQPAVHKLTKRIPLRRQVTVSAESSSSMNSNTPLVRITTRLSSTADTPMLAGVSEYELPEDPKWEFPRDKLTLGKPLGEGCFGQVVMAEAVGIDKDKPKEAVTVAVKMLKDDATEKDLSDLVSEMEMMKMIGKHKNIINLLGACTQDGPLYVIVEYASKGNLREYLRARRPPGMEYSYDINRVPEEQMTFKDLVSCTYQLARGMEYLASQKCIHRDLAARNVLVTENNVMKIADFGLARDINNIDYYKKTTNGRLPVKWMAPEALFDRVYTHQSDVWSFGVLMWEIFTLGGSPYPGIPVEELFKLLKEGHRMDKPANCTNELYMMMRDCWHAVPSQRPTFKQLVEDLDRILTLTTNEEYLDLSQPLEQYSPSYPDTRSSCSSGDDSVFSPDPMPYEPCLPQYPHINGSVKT
UniProt P22607, whole entry, looked up: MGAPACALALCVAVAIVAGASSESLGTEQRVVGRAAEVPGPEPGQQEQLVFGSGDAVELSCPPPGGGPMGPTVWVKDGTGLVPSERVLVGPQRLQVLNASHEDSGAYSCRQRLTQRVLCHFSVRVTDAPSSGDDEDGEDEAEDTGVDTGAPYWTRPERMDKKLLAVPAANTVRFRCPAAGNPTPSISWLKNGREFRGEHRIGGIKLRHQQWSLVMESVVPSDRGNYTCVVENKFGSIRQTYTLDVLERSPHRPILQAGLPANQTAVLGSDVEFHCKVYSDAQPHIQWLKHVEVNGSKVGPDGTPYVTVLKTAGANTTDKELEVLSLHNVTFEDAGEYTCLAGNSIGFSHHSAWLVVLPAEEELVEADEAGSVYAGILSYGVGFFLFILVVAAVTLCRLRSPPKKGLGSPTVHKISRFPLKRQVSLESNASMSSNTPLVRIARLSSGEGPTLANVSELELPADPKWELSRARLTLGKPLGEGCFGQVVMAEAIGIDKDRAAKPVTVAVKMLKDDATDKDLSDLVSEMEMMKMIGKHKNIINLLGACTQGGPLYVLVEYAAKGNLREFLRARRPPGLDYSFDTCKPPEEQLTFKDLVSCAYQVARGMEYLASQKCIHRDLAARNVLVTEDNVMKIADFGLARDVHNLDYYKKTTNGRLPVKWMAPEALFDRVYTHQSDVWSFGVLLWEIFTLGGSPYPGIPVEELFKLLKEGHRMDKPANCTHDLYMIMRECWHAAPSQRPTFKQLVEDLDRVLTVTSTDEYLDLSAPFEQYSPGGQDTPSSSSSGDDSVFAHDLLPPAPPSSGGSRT
UniProt P36888, whole entry: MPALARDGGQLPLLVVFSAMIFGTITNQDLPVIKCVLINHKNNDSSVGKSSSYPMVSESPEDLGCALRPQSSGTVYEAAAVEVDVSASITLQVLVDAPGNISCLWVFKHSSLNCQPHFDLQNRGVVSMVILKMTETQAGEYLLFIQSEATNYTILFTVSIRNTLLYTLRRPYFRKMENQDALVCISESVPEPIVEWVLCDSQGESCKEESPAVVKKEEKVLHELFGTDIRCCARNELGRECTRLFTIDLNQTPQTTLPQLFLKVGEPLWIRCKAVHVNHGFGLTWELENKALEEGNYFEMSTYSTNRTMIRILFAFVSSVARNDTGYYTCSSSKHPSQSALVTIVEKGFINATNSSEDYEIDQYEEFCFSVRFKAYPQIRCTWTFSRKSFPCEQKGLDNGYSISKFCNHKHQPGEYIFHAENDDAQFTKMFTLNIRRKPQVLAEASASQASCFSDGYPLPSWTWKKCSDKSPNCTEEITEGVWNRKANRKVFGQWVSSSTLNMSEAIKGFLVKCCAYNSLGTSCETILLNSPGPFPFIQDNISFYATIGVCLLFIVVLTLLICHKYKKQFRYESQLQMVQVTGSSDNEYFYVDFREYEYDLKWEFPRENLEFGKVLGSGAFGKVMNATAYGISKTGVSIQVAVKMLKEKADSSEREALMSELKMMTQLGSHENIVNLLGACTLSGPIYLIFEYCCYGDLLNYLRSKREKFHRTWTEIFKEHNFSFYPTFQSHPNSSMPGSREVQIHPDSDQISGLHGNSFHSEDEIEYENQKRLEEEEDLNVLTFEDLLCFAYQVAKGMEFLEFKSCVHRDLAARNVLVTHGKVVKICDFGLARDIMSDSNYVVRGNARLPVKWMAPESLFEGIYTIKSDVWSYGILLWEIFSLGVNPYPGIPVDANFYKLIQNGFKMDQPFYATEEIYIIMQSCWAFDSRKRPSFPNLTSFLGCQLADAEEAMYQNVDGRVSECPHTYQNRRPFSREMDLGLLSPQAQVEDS

Legend:
Experiment in all cases: kinase-Nluc reporter destabilization hit call (1 = scored as downregulated) (binary); higher = compound decreases kinase abundance
Settings in all cases: K562, 2-18 h
[1] = biological target: EGFR (UniProt P00533)
[2] = biological target: EGFR_G719S (UniProt P00533)
[3] = biological target: EGFR_G719S_T790M (UniProt P00533)
[4] = biological target: EGFR_L718V (UniProt P00533)
[5] = biological target: EGFR_L858R (UniProt P00533)
[6] = biological target: EGFR_L861Q (UniProt P00533)
[7] = biological target: EGFR_T790M (UniProt P00533)
[8] = biological target: EPHA2 (UniProt P29317)
[9] = biological target: ERBB3 (UniProt P21860)
[10] = biological target: ERBB4_R711C (clone: ERBB4_mut) (UniProt Q15303)
[11] = biological target: ERN1 (UniProt O75460)
[12] = biological target: FGFR1 (UniProt P11362)
[13] = biological target: FGFR2 (UniProt P21802)
[14] = biological target: FGFR3 (UniProt P22607)
[15] = biological target: FGR (UniProt P09769)
[16] = biological target: FLT3 (UniProt P36888)
[17] = biological target: FYN (UniProt P06241)
[18] = biological target: GSK3A (UniProt P49840)
[19] = biological target: HER2 (UniProt P04626)
[20] = biological target: INSRR (UniProt P14616)

Measured: kinase-Nluc reporter destabilization hit call

Cc1[nH]c(/C=C2\C(=O)Nc3ccc(F)cc32)c(C)c1C(=O)NCCN1CCCC1 [Toceranib]
inactive: [1]; 2 µM 0 | [2]; 2 µM 0 | [3]; 2 µM 0 | [4]; 2 µM 0 | [5]; 2 µM 0 | [6]; 2 µM 0 | [7]; 2 µM 0 | [8]; 2 µM 0 | [9]; 2 µM 0 | [10]; 2 µM 0 | [11]; 2 µM 0 | [12]; 2 µM 0 | [13]; 2 µM 0 | [14]; 2 µM 0 | [15]; 2 µM 0 | [16]; 2 µM 0 | [17]; 2 µM 0 | [18]; 2 µM 0 | [19]; 2 µM 0 | [20]; 2 µM 0

Cn1cc(-c2cnc3ccc4ccc(CS(=O)(=O)NCc5ccccn5)cc4c(=O)c3c2)cn1
inactive: [1]; 10 µM 0 | [2]; 10 µM 0 | [3]; 10 µM 0 | [4]; 10 µM 0 | [5]; 10 µM 0 | [6]; 10 µM 0 | [7]; 10 µM 0 | [8]; 10 µM 0 | [9]; 10 µM 0 | [10]; 10 µM 0 | [11]; 10 µM 0 | [12]; 10 µM 0 | [13]; 10 µM 0 | [14]; 10 µM 0 | [15]; 10 µM 0 | [16]; 10 µM 0 | [17]; 10 µM 0 | [18]; 10 µM 0 | [19]; 10 µM 0 | [20]; 10 µM 0

CC(=O)Nc1cccc(-n2c(=O)n(C3CC3)c(=O)c3c(Nc4ccc(I)cc4F)n(C)c(=O)c(C)c32)c1 [Trametinib (DMSO solvate)]
inactive: [1]; 10 µM 0 | [2]; 10 µM 0 | [3]; 10 µM 0 | [4]; 10 µM 0 | [5]; 10 µM 0 | [6]; 10 µM 0 | [7]; 10 µM 0 | [8]; 10 µM 0 | [9]; 10 µM 0 | [10]; 10 µM 0 | [11]; 10 µM 0 | [12]; 10 µM 0 | [13]; 10 µM 0 | [14]; 10 µM 0 | [15]; 10 µM 0 | [16]; 10 µM 0 | [17]; 10 µM 0 | [18]; 10 µM 0 | [19]; 10 µM 0 | [20]; 10 µM 0

O=C1Nc2ccccc2/C1=C/c1ccccn1 [GSK-3β inhibitor 1]
inactive: [1]; 10 µM 0 | [2]; 10 µM 0 | [3]; 10 µM 0 | [4]; 10 µM 0 | [5]; 10 µM 0 | [6]; 10 µM 0 | [7]; 10 µM 0 | [8]; 10 µM 0 | [9]; 10 µM 0 | [10]; 10 µM 0 | [11]; 10 µM 0 | [12]; 10 µM 0 | [13]; 10 µM 0 | [14]; 10 µM 0 | [15]; 10 µM 0 | [16]; 10 µM 0 | [17]; 10 µM 0 | [18]; 10 µM 0 | [19]; 10 µM 0 | [20]; 10 µM 0

CNC(=O)c1ccccc1Nc1cc(Nc2ccc(N3CCOCC3)cc2OC)ncc1C(F)(F)F [PND-1186 (hydrochloride)]
inactive: [1]; 10 µM 0 | [2]; 10 µM 0 | [3]; 10 µM 0 | [4]; 10 µM 0 | [5]; 10 µM 0 | [6]; 10 µM 0 | [7]; 10 µM 0 | [8]; 10 µM 0 | [9]; 10 µM 0 | [10]; 10 µM 0 | [11]; 10 µM 0 | [12]; 10 µM 0 | [13]; 10 µM 0 | [14]; 10 µM 0 | [15]; 10 µM 0 | [16]; 10 µM 0 | [17]; 10 µM 0 | [18]; 10 µM 0 | [19]; 10 µM 0 | [20]; 10 µM 0
